# Data from patent US12005123B2 (CAREGEN CO., LTD., priority 2017, dated 2024).
# Plain letter strings leave the end groups untold.
# Assay: general procedure: Fmoc solid-phase peptide synthesis; chlorotrityl chloride resin; Bop/HoBt/DIEA
# Conditions: whole synthesis
sequence,measurement,setting,value
RRLIDRTNANFLVM,crude mass,,1.49 g
same,crude yield,scale of the general procedure 700 mg resin,86.5%
